The values that follow come from PMC8201222.

The chains behind the UniProt entries cited, without tags or fusion partners.
UniProt Q7KZF4: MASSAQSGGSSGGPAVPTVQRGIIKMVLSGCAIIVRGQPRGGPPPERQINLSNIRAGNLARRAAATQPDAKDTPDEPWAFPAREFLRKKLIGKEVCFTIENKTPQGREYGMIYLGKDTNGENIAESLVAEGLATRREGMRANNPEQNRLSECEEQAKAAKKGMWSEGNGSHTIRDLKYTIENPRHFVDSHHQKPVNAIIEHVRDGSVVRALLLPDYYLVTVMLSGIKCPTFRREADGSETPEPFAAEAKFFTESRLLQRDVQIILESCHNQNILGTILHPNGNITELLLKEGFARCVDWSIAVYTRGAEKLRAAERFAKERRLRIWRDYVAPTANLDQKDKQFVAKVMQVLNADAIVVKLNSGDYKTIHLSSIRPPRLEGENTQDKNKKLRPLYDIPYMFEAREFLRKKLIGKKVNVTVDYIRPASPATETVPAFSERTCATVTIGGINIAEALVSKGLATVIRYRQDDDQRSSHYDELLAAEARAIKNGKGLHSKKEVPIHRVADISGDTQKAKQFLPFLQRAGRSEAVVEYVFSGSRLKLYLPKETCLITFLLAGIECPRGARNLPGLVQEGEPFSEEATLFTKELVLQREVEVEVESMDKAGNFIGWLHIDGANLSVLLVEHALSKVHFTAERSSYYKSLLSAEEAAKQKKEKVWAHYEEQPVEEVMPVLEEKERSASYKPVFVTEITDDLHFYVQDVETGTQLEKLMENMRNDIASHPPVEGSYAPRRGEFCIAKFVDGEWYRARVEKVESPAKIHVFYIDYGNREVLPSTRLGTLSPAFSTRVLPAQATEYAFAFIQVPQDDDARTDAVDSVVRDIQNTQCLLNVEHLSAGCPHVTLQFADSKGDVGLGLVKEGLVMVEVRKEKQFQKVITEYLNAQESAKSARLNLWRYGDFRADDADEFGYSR

In this assay the target is T1, HA-tagged astrocyte elevated gene-1 (AEG-1) (human) (UniProt Q86UE4).
T1 sequence: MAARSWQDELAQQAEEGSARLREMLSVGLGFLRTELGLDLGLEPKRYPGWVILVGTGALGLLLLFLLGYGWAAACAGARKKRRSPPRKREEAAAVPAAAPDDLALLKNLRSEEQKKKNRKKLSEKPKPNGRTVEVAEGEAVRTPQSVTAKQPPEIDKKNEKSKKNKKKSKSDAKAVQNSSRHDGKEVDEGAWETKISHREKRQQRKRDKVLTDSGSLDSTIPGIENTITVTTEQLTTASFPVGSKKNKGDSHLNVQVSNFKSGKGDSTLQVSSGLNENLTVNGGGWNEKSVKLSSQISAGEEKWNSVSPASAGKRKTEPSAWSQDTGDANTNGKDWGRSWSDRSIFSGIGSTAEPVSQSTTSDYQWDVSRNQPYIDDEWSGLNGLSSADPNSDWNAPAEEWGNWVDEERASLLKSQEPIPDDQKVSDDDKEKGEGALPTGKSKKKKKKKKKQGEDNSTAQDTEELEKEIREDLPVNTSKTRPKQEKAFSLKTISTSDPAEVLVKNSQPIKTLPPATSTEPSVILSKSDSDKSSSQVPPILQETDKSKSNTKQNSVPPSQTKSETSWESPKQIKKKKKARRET
The assay is described as follows: affinity purification with mass spectrometry; 293T cells transfected with EV or pcDNA3.1-AEG-1-HA; anti-HA IP of lysates at 4 °C overnight, protein A/G agarose beads, 5 washes with NETN lysis buffer; in-gel digestion, LC-MS/MS; hits filtered by a scatter plot of LFQ values (Perseus).

These are yes or no findings as the source states them, for the method shown. Binding seen in cells or lysates may run through a third protein. Here binding means that the protein was enriched with, or labelled near, the bait; the list need not be complete. Where a sequence is shown, tags or fusion partners need not be part of it.

Take SND1 (from UniProt Q7KZF4 1-910): the binding result is on record as “binds”.
